The record followed here is the supplement of paper PMC3334620.

The full ranking holds about 33,000 sequences; the median of “E-score (-0.5 to 0.5)” is about -8e-05, and the highest 2% start at about 0.23. Some of the results follow.

For this test, the target named is T1, Nrg2 (UniProt P38082).
T1 sequence: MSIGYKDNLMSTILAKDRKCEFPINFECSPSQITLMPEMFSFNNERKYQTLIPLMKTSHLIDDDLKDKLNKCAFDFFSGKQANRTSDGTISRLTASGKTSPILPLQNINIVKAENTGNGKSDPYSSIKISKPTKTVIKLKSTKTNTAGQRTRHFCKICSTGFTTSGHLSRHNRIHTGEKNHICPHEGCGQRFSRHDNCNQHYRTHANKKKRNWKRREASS
Briefly: PBM E-score (8-mer binding enrichment) (E-score (-0.5 to 0.5)); higher = stronger / more preferred TF binding. The settings on record: protein concentration: 100 nM; construct: GST-full length. In a few lines:
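E-scores (a modified Wilcoxon-Mann-Whitney statistic) were assigned by the Universal PBM Analysis Suite to every ungapped eight-base word pooled with its reverse complement. The input came from universal all-10-mer Agilent arrays made double-stranded by primer extension and probed with GST-tagged yeast transcription factors at about 100-200 nM. Fluorescent anti-GST detected bound protein, and masliner normalised the scans.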
Turning to CAGTTCGC, the “PBM E-score” value came out at 0.0802. On to GAAATCAA, for which the “PBM E-score” value stood at 0.166. With AATAAAGC, the “PBM E-score” value is -0.0101. For the sequence CATATTGG, the “PBM E-score” value came to 0.105. Take CTTGGCGC: the “PBM E-score” value was 0.115. As for CGATAGAA, the figure is 0.0645; as for ACGACGGA, 0.153; as for CAGGGAGA, 0.0226. Consider CTCCGAGA, for which the “PBM E-score” value is -0.0399. Regarding TACCTCTA, the “PBM E-score” value is 0.113. In the case of AAGTTGGG, the “PBM E-score” value came to 0.0952. On to AACTCTGC, for which the “PBM E-score” value was -0.0708.

For ATTTCGCG, the “PBM E-score” value stood at 0.275. For the sequence GGAAACTA, the “PBM E-score” value was -0.0456. As for ATTTCAAC, the figure is 0.0302; as for CGAGGCAG, -0.0745. For TCATGCGA, the “PBM E-score” value amounted to 0.112. Consider ATTCGTTC, for which the “PBM E-score” value was determined as 0.28. For the sequence GAAAACTC, the “PBM E-score” value is -0.0267. In the case of AGAAGGAC, the “PBM E-score” value is -0.0356.

CTGAGATC: the “PBM E-score” value is -0.0337. For ATCTGAGC the value was 0.0357; for GGCCCGCC, -0.242; for CAGTCTTA, -0.211. As for GTTTAGAA, the “PBM E-score” value was -0.0651.

In the case of GTTCATTA, the “PBM E-score” value was determined as 0.133.

Regarding AACTAAGC, the “PBM E-score” value turned out to be 0.109. On to ACCAGGTG, for which the “PBM E-score” value is -0.139.

For GAGACCCA, the “PBM E-score” value is -0.0541. As for CATTGCTC, the figure is -0.109; as for GAAAATAA, 0.0631; as for CCACAGGG, 0.161. As for CTGGCGAA, the “PBM E-score” value is 0.0129.

In the case of AAGTCGAG, the “PBM E-score” value was -0.0268. For AGAAGGTA the value was 0.179; for AGTTGAGC, 0.0537; for CCTATGAC, -0.124. With CGTGGTCC, the “PBM E-score” value was -0.174. For GGAGTTAA the value was -0.0668.

Take ATCAGTGA: the “PBM E-score” value was 0.0481. On to AAAATGCT, for which the “PBM E-score” value is 0.058. Regarding CGATGTCC, the “PBM E-score” value turned out to be 0.0965. For ACGCTTCT the value was -0.00794. Regarding CCCGTACA, the “PBM E-score” value was -0.0951.

In the case of CGACTGAC, the “PBM E-score” value was -0.0912. In the case of GATAGCTA, the “PBM E-score” value is -0.149. Regarding CAAATATC, the “PBM E-score” value was determined as 0.256. For the sequence GTACCAGA, the “PBM E-score” value was -0.167.

Consider TGGTTTAA, for which the “PBM E-score” value was 0.0356. As for ATTCCCCC, the figure is -0.267. As for ATCTCGTG, the figure is -0.0868. Regarding ATCACTCC, the “PBM E-score” value was -0.151. Turning to CACGCCCC, the “PBM E-score” value was -0.0269. In the case of ATACGCAG, the “PBM E-score” value was -0.235. As for GTGCAGTA, the figure is -0.0363; as for GAGCTGGA, -0.135. Take GCCAACAC: the “PBM E-score” value is -0.126. Turning to CAATCTTC, the “PBM E-score” value worked out at 0.0925. As for AGTAAATA, the figure is 0.147. AACGACCG: the “PBM E-score” value was -0.165. Regarding AGATAGCG, the “PBM E-score” value is 0.0366. For the sequence ATCTCTGC, the “PBM E-score” value was 0.148. On to CGACGCTC, for which the “PBM E-score” value was -0.0302. In the case of AGGTTGTC, the “PBM E-score” value is -0.197. With GTTTGCAA, the “PBM E-score” value came to 0.134. Turning to CCTAGTCG, the “PBM E-score” value was -0.119. As for CTACGAGC, the figure is -0.152; as for CTGGGCCC, 0.0434; as for CTGCACAC, -0.155.

In the case of ACTCAAGA, the “PBM E-score” value stood at 0.00721. As for AAGGCCTC, the figure is -0.0691; as for ACGCTGTC, -0.0824.

Regarding ATATTTTC, the “PBM E-score” value was found to be 0.215. In the case of CCGCGCAA, the “PBM E-score” value is 0.0313. As for CGATTCGA, the figure is 0.27. With ACACTAGT, the “PBM E-score” value was -0.0556.

AATGCCCC: the “PBM E-score” value was -0.0413. Take TAACGCTA: the “PBM E-score” value was -0.135. Turning to AATTGGGA, the “PBM E-score” value came to 0.0665. AACCTGTG: the “PBM E-score” value was determined as 0.0227. ATGGCTTG: the “PBM E-score” value is -0.0427. Consider ATTTACTG, for which the “PBM E-score” value worked out at 0.107. In the case of AACAATGT, the “PBM E-score” value was found to be 0.0569. For CACTCTGG the value was -0.0491. Turning to AGCCAATA, the “PBM E-score” value is -0.169.

Take GAGAAGGC: the “PBM E-score” value was -0.117. As for AAATAGTC, the figure is 0.0979.

Regarding GGAATCTA, the “PBM E-score” value worked out at 0.0415. As for CCATGGGG, the figure is 0.0538.

As for CACTCCCC, the “PBM E-score” value was -0.00765. For the sequence CGAGGTGA, the “PBM E-score” value was 0.198. Turning to GACCGCCA, the “PBM E-score” value is -0.0413. With AACTTGGG, the “PBM E-score” value was -0.00875. Take AAGCTCGC: the “PBM E-score” value amounted to 0.0882. Regarding CGTGAGTA, the “PBM E-score” value came to 0.0428.

Turning to ATGATCTC, the “PBM E-score” value is 0.087. On to CAACCGCA, for which the “PBM E-score” value was determined as 0.0352. For CACCACCC, the “PBM E-score” value was -0.111. On to CGTACTTA, for which the “PBM E-score” value was 0.115. Regarding AGCGCTGG, the “PBM E-score” value is -0.00329. In the case of AATCCATT, the “PBM E-score” value is 0.198. On to AACTTCCA, for which the “PBM E-score” value was -0.0462. For the sequence AGGCCGAT, the “PBM E-score” value worked out at 0.0473.

Turning to GATGCAGC, the “PBM E-score” value was 0.0624.

Regarding CAATTTCC, the “PBM E-score” value is 0.108. Consider ATACATCC, for which the “PBM E-score” value stood at 0.0716. Consider CAACTAGG, for which the “PBM E-score” value is -0.0389.

Take CTCCCTGA: the “PBM E-score” value came to 0.0641. In the case of ATATTGAG, the “PBM E-score” value amounted to 0.11.
